Consider 1 substance from patent US12202868B1 (KING SAUD UNIVERSITY, priority 2024, dated 2025).

This data set is described as follows: peptide made by a vendor (Fmoc solid-phase peptide synthesis). The note with it: whole synthesis, RP-HPLC, HCl salt.

For the substance “^1LPSTGEKDTA^10VFRNGGFFRK^20SKEK^24-S5-^26GKE^28-S5-KRIV^33”, the “final HPLC purity” value is reported as above 95%.
